Results from publication PMC10579717.
Results are given in words; binding and its absence hold for the method and conditions named. Binding can be weak; no strength is given.

Molecular target: BD-GhACO1 (GhACO1 full length fused to the Gal4 DNA-binding domain) (Gossypium hirsutum) (UniProt Q2QDG0)
Assay: two-hybrid; Gal4 system; prey in pGADT7 (GhXB38D and its domains), bait in pGBKT7 (GhACS4, GhACO1); strain AH109; growth on SD-Trp/-Leu/-His/-Ade at 30 °C for 3-5 days

binding: binds
Substance: AD-GhXB38D (GhXB38D full length fused to the Gal4 activation domain) (from UniProt A0A1U8HYW0) (enzyme)
